Two molecules from paper doi:10.1101/2020.04.06.027847 can be followed below.

These are yes or no findings as the source states them, for the method shown. Some binding calls cover weakened binding; strength is not graded here.

The assay addresses T1, Scs3 (S. cerevisiae) (UniProt P53012).
T1 sequence: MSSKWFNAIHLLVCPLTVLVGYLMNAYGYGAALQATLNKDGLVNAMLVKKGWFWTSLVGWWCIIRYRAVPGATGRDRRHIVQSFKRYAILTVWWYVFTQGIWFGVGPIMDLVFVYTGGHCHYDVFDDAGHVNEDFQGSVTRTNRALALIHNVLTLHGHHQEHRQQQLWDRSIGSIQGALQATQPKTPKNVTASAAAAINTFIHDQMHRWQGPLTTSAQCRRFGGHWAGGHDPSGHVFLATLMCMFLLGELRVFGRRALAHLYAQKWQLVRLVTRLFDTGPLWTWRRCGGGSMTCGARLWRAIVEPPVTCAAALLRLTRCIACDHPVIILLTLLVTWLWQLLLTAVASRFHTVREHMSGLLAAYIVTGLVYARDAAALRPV
The assay is described as follows: two-hybrid.

B1: Doa10 (protein, UniProt P40318 1-1319)
chain: MDVDSDVNVSRLRDELHKVANEETDTATFNDDAPSGATCRICRGEATEDNPLFHPCKCRGSIKYMHESCLLEWVASKNIDISKPGADVKCDICHYPIQFKTIYAENMPEKIPFSLLLSKSILTFFEKARLALTIGLAAVLYIIGVPLVWNMFGKLYTMMLDGSSPYPGDFLKSLIYGYDQSATPELTTRAIFYQLLQNHSFTSLQFIMIVILHIALYFQYDMIVREDVFSKMVFHKIGPRLSPKDLKSRLKERFPMMDDRMVEYLAREMRAHDENRQEQGHDRLNMPAAAADNNNNVINPRNDNVPPQDPNDHRNFENLRHVDELDHDEATEEHENNDSDNSLPSGDDSSRILPGSSSDNEEDEEAEGQQQQQQPEEEADYRDHIEPNPIDMWANRRAQNEFDDLIAAQQNAINRPNAPVFIPPPAQNRAGNVDQDEQDFGAAVGVPPAQANPDDQGQGPLVINLKLKLLNVIAYFIIAVVFTAIYLAISYLFPTFIGFGLLKIYFGIFKVILRGLCHLYYLSGAHIAYNGLTKLVPKVDVAMSWISDHLIHDIIYLYNGYTENTMKHSIFIRALPALTTYLTSVSIVCASSNLVSRGYGRENGMSNPTRRLIFQILFALKCTFKVFTLFFIELAGFPILAGVMLDFSLFCPILASNSRMLWVPSICAIWPPFSLFVYWTIGTLYMYWFAKYIGMIRKNIIRPGVLFFIRSPEDPNIKILHDSLIHPMSIQLSRLCLSMFIYAIFIVLGFGFHTRIFFPFMLKSNLLSVPEAYKPTSIISWKFNTILLTLYFTKRILESSSYVKPLLERYWKTIFKLCSRKLRLSSFILGKDTPTERGHIVYRNLFYKYIAAKNAEWSNQELFTKPKTLEQAEELFGQVRDVHAYFVPDGVLMRVPSSDIVSRNYVQTMFVPVTKDDKLLKPLDLERIKERNKRAAGEFGYLDEQNTEYDQYYIVYVPPDFRLRYMTLLGLVWLFASILMLGVTFISQALINFVCSFGFLPVVKLLLGERNKVYVAWKELSDISYSYLNIYYVCVGSVCLSKIAKDILHFTEGQNTLDEHAVDENEVEEVEHDIPERDINNAPVNNINNVEEGQGIFMAIFNSIFDSMLVKYNLMVFIAIMIAVIRTMVSWVVLTDGILACYNYLTIRVFGNSSYTIGNSKWFKYDESLLFVVWIISSMVNFGTGYKSLKLFFRNRNTSKLNFLKTMALELFKQGFLHMVIYVLPIIILSLVFLRDVSTKQIIDISHGSRSFTLSLNESFPTWTRMQDIYFGLLIALESFTFFFQATVLFIQWFKSTVQNVKDEVYTKGRALENLPDES
Take B1: the binding entry is on record as “binds”.

B2: Zuo1 (protein, UniProt P32527 1-433)
chain: MFSLPTLTSDITVEVNSSATKTPFVRRPVEPVGKFFLQHAQRTLRNHTWSEFERIEAEKNVKTVDESNVDPDELLFDTELADEDLLTHDARDWKTADLYAAMGLSKLRFRATESQIIKAHRKQVVKYHPDKQSAAGGSLDQDGFFKIIQKAFETLTDSNKRAQYDSCDFVADVPPPKKGTDYDFYEAWGPVFEAEARFSKKTPIPSLGNKDSSKKEVEQFYAFWHRFDSWRTFEFLDEDVPDDSSNRDHKRYIERKNKAARDKKKTADNARLVKLVERAVSEDPRIKMFKEEEKKEKERRKWEREAGARAEAEAKAKAEAEAKAKAESEAKANASAKADKKKAKEAAKAAKKKNKRAIRNSAKEADYFGDADKATTIDEQVGLIVDSLNDEELVSTADKIKANAAGAKEVLKESAKTIVDSGKLPSSLLSYFV
As for B2, the binding entry is listed as “binds”.
